Source: patent publication US7322965B2, “Infection-resistant medical devices” (priority 2002, dated 2008)
Converted amounts (≈) assume the structure as drawn.

Legend:
S. aureus UC-20205 = assay: Determination of minimum inhibitory concentration (microdilution); assay type: cell-based; conditions: Staphylococcus aureus, UC20205, 18 h, read-out: MIC (minimum inhibitory concentration)
S. aureus UC-20206 = assay: as above; assay type: cell-based; conditions: Staphylococcus aureus, UC20206, 18 h, read-out: MIC (minimum inhibitory concentration)

## CN[C@H](CC(C)C)C(=O)N[C@H]1C(=O)N[C@@H](CC(N)=O)C(=O)N[C@H]2C(=O)N[C@H]3C(=O)N[C@H](C(=O)N[C@H](C(=O)O)c4cc(O)cc(O)c4-c4cc3ccc4O)[C@H](O)c3ccc(c(Cl)c3)Oc3cc2cc(c3O[C@@H]2O[C@H](CO)[C@@H](O)[C@H](O)[C@H]2O[C@H]2C[C@](C)(N)[C@H](O)[C@H](C)O2)Oc2ccc(cc2Cl)[C@H]1O [Vancomycin]
S. aureus UC-20205
  MIC: 1 µg/mL (≈ 0.69 µM)
S. aureus UC-20206
  MIC: 1 µg/mL (≈ 0.69 µM)
